# From the supplement of paper PMC11006884
# Sequences of proteins named here, by UniProt entry; tags and fusion partners are left off. A change or cut given only in a name is not applied to a line headed by its entry.
# UniProt P35250, whole entry, looked up: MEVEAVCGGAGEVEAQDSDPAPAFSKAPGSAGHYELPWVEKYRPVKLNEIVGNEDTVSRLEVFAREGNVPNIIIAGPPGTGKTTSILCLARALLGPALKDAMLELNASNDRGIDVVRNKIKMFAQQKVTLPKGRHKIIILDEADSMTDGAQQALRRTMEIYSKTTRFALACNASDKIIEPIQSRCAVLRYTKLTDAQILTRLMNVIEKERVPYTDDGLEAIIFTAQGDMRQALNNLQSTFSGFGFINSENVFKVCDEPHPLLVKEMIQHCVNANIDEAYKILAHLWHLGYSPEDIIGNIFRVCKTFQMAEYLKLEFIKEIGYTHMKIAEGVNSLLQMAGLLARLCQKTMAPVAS
# UniProt P35659: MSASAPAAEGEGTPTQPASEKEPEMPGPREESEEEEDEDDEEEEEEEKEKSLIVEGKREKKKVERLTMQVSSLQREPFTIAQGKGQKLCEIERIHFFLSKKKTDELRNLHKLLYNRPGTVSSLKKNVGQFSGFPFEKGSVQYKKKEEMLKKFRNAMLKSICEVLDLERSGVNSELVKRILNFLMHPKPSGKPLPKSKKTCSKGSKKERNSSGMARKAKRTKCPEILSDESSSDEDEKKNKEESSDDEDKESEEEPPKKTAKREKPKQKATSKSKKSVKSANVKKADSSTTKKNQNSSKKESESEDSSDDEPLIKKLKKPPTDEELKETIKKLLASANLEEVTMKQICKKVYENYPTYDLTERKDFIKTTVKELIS
# UniProt P31949: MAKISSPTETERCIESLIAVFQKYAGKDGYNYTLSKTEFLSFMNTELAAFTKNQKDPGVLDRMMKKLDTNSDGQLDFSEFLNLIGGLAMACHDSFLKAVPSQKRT
# UniProt P39687: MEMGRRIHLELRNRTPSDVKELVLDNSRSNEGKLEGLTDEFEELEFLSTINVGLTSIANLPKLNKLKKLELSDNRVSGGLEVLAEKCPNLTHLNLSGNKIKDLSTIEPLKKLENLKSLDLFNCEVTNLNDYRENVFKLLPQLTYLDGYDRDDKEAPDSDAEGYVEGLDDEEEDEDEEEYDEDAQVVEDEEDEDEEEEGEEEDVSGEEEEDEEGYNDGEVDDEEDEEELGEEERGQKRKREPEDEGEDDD
# UniProt P35998: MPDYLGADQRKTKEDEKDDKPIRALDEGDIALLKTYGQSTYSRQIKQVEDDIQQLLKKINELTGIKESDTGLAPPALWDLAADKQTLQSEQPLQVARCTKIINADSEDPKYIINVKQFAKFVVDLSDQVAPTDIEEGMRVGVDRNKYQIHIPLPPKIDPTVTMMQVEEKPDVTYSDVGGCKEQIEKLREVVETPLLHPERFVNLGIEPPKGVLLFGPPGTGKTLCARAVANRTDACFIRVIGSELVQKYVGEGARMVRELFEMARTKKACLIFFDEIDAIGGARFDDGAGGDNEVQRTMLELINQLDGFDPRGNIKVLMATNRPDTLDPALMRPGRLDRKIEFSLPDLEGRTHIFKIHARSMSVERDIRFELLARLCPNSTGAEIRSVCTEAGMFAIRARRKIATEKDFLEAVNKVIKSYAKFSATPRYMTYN
# UniProt P42167: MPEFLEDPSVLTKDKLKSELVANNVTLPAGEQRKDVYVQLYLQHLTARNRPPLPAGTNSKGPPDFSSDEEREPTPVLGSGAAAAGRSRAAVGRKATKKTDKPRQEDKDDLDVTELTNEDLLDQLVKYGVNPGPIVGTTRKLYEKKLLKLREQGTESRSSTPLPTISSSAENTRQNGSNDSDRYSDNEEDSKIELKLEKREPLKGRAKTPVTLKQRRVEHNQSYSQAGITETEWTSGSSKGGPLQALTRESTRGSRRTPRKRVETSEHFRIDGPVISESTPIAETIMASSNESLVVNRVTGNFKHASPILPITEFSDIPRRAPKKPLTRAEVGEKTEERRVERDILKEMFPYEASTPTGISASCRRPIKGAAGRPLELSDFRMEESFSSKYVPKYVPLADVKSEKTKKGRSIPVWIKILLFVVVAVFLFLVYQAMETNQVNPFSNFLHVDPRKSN
# UniProt P34949: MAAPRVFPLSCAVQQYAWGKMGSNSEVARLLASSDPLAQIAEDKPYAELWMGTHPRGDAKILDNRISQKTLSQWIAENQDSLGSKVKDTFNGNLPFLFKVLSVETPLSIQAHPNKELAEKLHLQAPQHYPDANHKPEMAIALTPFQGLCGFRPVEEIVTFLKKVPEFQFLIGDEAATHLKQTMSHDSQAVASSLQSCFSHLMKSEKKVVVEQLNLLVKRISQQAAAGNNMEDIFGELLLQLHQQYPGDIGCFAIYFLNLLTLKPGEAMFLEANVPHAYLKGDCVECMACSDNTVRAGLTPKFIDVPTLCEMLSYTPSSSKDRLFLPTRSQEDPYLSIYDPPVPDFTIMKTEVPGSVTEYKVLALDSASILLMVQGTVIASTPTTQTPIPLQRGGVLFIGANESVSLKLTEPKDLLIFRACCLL
# UniProt P40424: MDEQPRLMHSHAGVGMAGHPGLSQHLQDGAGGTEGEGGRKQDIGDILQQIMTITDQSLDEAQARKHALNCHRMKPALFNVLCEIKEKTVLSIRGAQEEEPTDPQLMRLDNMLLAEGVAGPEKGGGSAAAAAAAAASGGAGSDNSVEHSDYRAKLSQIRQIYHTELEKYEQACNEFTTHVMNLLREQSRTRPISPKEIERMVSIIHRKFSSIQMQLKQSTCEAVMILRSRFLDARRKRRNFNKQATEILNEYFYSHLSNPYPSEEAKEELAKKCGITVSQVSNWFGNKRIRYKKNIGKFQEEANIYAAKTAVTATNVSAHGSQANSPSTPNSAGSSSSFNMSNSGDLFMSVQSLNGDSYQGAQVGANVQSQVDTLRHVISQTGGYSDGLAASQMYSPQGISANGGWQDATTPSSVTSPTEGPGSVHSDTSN
# UniProt P35579, whole entry, looked up: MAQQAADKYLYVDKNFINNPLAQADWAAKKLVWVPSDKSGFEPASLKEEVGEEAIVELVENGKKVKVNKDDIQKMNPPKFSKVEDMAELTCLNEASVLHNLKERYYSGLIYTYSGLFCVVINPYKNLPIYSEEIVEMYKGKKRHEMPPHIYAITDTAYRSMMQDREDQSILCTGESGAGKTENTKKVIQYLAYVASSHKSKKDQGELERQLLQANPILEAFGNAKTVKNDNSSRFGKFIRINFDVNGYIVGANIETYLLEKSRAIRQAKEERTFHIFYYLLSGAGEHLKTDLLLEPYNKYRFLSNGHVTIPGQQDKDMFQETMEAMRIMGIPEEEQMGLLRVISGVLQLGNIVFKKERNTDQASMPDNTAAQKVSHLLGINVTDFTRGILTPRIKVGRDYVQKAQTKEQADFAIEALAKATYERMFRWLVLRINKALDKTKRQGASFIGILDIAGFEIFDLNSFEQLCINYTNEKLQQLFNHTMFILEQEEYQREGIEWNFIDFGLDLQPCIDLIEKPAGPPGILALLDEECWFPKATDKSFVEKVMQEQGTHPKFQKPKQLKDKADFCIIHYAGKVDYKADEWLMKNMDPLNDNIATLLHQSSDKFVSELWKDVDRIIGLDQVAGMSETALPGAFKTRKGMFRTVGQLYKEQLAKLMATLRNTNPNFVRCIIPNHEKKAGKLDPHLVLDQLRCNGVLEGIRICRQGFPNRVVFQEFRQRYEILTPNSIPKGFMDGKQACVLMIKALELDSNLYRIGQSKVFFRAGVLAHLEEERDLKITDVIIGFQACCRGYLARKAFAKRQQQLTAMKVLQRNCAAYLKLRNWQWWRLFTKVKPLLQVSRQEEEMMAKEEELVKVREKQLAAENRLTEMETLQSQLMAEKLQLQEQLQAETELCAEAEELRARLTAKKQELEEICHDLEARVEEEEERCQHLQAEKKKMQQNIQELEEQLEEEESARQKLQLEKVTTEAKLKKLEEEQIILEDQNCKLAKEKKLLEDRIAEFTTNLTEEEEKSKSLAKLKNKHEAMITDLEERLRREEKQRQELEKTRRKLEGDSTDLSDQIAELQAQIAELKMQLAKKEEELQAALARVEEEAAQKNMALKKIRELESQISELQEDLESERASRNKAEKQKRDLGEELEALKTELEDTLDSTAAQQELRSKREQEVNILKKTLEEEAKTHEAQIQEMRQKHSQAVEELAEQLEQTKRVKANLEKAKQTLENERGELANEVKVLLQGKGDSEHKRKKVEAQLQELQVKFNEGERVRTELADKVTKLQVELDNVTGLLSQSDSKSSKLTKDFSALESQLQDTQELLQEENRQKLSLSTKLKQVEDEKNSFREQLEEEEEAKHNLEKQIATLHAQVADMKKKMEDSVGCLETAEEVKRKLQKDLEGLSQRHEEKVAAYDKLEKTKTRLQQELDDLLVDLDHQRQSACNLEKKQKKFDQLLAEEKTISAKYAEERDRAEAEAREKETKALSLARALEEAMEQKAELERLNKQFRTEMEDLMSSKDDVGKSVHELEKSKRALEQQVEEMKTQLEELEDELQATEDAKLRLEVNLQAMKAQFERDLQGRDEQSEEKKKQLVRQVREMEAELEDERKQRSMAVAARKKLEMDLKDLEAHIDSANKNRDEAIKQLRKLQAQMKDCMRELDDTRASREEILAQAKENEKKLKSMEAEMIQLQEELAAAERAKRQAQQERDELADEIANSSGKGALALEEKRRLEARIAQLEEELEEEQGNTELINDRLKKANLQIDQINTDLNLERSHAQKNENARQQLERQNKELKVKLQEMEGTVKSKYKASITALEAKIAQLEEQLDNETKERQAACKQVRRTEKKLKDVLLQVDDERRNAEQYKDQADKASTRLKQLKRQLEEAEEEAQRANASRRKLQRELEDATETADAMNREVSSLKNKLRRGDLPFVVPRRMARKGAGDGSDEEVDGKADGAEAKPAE
# UniProt P30519: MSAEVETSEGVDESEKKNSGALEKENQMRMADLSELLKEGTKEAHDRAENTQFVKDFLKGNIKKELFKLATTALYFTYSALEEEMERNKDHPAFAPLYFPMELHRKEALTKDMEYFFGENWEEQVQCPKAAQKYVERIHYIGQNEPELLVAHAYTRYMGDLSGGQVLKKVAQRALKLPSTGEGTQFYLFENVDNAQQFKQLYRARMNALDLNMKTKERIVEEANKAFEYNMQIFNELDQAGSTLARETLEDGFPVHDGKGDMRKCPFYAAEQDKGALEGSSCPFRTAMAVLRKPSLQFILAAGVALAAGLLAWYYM
# UniProt P31948, whole entry, looked up: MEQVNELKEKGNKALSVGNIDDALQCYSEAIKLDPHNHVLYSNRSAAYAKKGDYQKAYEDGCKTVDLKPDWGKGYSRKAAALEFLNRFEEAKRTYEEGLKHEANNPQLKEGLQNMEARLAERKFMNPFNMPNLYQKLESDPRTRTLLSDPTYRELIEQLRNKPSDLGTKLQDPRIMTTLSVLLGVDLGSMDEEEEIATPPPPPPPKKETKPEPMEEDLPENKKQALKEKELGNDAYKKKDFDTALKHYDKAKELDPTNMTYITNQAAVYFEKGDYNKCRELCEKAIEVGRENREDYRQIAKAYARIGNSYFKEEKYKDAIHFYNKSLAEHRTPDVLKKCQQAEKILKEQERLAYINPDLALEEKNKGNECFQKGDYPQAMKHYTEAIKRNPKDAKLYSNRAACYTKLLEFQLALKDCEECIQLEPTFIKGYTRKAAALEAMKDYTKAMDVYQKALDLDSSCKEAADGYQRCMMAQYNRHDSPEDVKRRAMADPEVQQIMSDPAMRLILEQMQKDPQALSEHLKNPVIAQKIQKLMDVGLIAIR
# UniProt P31751: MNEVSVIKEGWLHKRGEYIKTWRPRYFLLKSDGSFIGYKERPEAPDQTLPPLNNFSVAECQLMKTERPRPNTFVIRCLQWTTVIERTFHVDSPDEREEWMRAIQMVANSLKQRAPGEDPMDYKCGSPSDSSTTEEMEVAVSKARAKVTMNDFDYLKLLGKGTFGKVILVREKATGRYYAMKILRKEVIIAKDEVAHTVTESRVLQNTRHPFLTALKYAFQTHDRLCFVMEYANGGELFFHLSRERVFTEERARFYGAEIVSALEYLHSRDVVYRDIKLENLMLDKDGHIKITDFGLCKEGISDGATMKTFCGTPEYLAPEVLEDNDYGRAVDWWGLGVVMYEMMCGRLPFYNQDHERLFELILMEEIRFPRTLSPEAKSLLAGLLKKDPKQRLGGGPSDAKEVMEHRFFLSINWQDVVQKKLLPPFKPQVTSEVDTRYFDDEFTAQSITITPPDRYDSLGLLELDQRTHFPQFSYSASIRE
# UniProt P37268: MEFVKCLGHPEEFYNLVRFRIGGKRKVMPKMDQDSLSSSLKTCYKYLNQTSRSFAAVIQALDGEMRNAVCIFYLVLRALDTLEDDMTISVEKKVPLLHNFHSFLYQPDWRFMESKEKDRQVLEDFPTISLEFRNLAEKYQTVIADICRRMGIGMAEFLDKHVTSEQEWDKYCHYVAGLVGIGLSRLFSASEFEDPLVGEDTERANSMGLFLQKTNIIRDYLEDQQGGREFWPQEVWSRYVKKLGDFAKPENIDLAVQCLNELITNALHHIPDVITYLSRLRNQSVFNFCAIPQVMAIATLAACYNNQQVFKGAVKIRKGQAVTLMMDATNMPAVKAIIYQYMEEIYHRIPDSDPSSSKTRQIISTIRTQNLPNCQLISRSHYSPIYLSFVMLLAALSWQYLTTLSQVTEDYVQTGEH
# Only a part is listed here, and it is no random draw.
# Compound: COC(=O)C#Cc1ccccc1 [methyl 3-phenylpropiolate]
# Test: log2 ratio of iodoacetamide-alkyne labeling of the cysteine site, DMSO over compound (competition); higher = stronger covalent engagement of the cysteine by the compound, active = 1 or more
# Settings: 500 µM; treatment time 1 h; system: HEK293T cell lysate
# Procedure, shortened: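 Reporter intensities give each cysteine's log2 competition ratio as the mean of control channels over the mean of compound channels. The samples were HEK293T lysate (2 mg/mL) given vehicle or electrophile (500 µM, 1 h, ambient temperature), then iodoacetamide alkyne (1 h), followed by click coupling to sCIP-TMT reagents, pooling, trypsin digestion overnight at 37 °C, streptavidin enrichment, acid elution, Orbitrap Eclipse LC-MS/MS with FAIMS and FragPipe quantification. Duplicate channels and three replicates were run, and cysteines quantified in only one replicate were discarded.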
row,Target,log2 ratio of iodoacetamide-alkyne labeling
1,LRPPRC C130 (UniProt P42704),inactive: 0.188
2,FEN1 C163 (UniProt P39748),inactive: 0.541
3,CUX1 C1040 (UniProt P39880),inactive: 0.877
4,HADHA C747 (UniProt P40939),inactive: 0.195
5,TTK C229 (UniProt P33981),inactive: 0.945
6,CPOX C198 (UniProt P36551),inactive: 0.365
7,RFC2 C255 (UniProt P35250),inactive: 0.0817
8,DEK C200 (UniProt P35659),inactive: 0.718
9,S100A11 C91 (UniProt P31949),inactive: 0.149
10,ANP32A C123 (UniProt P39687),inactive: 0.345
11,PSMC2 C236 (UniProt P35998),inactive: 0.313
12,PPP1CC C62 (UniProt P36873),inactive: -0.125
13,SOAT1 C92 (UniProt P35610),inactive: 0.403
14,SDHA C89 (UniProt P31040),inactive: -0.0333
15,TMPO C363 (UniProt P42167),inactive: 0.444
16,MYH10 C1238 (UniProt P35580),inactive: 0.111
17,LRPPRC C927 (UniProt P42704),inactive: -0.123
18,IARS C350 (UniProt P41252),inactive: 0.0304
19,PPP1CC C105 (UniProt P36873),inactive: 0.33

# Random excerpt: 3 entries already listed
row,Target,log2 ratio of iodoacetamide-alkyne labeling
6,CPOX C198 (UniProt P36551),inactive: 0.365
4,HADHA C747 (UniProt P40939),inactive: 0.195
1,LRPPRC C130 (UniProt P42704),inactive: 0.188

# More records.

row,Target,log2 ratio of iodoacetamide-alkyne labeling
1,CUX1 C802 (UniProt P39880),inactive: 0.104
2,RPL4 C250 (UniProt P36578),inactive: 0.0328
3,MPI C289 (UniProt P34949),inactive: -0.0268
4,FUS C433 (UniProt P35637),inactive: -0.139
5,LONP1 C704 (UniProt P36776),inactive: -0.000574
6,MAT2A C104 (UniProt P31153),inactive: 0.274
7,CASP3 C184 (UniProt P42574),inactive: 0.259
8,UniProt P41743_C595,inactive: 0.16
9,P41778 C172 (UniProt P40424),inactive: -0.00628
10,RPL3 C336 (UniProt P39023),inactive: 0.0948
11,IARS C400 (UniProt P41252),inactive: 0.208
12,MYH9 C896 (UniProt P35579),inactive: 0.297
13,HMOX2 C127 (UniProt P30519),inactive: 0.321
14,STIP1 C471 (UniProt P31948),inactive: -0.107
15,AKT2 C124 (UniProt P31751),inactive: 0.434
16,ADD1 C68 (UniProt P35611),inactive: 0.368
17,STAT1 C108 (UniProt P42224),inactive: 0.195
18,FDFT1 C6 (UniProt P37268),inactive: 0.233
